## Results of single-concentration screens

The chains behind the UniProt entries cited, without tags or fusion partners. Residues count along the entry.
UniProt A4I591, 1-473: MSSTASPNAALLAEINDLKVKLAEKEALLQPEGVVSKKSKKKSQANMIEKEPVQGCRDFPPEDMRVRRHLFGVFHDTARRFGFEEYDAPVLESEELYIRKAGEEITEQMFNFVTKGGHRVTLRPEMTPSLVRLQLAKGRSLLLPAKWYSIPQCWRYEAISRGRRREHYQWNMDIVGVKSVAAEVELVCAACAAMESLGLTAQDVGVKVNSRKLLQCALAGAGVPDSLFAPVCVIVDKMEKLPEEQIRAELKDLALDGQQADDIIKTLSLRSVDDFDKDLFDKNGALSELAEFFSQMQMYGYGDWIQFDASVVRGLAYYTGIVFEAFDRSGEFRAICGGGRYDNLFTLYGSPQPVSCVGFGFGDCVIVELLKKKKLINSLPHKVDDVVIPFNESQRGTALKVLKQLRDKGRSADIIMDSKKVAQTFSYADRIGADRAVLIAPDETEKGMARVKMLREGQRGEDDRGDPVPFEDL
UniProt P9WNZ1, whole entry: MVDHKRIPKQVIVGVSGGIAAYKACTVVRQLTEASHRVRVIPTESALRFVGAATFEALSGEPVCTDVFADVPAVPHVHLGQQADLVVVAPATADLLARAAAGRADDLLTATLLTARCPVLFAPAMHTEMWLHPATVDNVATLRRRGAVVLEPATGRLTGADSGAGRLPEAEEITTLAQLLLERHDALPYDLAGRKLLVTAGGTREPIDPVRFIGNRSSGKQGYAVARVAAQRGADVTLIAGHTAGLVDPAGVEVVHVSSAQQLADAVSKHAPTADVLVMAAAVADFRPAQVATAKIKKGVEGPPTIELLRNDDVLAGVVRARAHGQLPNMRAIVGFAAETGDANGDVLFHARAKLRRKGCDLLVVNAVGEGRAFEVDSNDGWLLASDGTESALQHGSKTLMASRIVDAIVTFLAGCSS

Source: ChEMBL document CHEMBL3988442, “University of Dundee, Small-Polar-MMV Screening Library” (2021).

LiHisRS: 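Histidine-tRNA ligase, Leishmania infantum (UniProt A4I591). Enzyme assay of histidyl-tRNA synthetase; the read-out is not stated. Compounds at 30 µM. Direction is inferred from retests: higher values go with stronger inhibition. The assay is labelled LdHisRS but filed under L. infantum. Of about 69,000 compounds tested this way, about 410 (0.6%) reached 50% or more in at least one test.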
Leishmania in macrophages: 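Cell assay of Leishmania donovani living inside macrophages; the read-out is not stated. Compounds at 30 µM. Direction is inferred from retests: higher values go with stronger inhibition. Of about 69,000 compounds tested this way, about 1,000 (1.5%) reached 50% or more in at least one test.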
CoaBC: 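Coenzyme A biosynthesis protein CoaBC, Mycobacterium tuberculosis (UniProt P9WNZ1). Enzyme assay of CoaBC with a phosphate dye (Biomol Green) read at 650 nm. Compounds at 30 µM. Direction is inferred from only a few compounds that gave an IC50; most scored high, so higher reads as stronger inhibition. Most strong results did not repeat in a second test. Size under these conditions: about 67,000 compounds, about 40 of them at 50% or above in at least one test.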

Values are the deposited “Percent Effect”, in %.
How 0% and 100% were set is not recorded. Most values in the screen are low, and negative values occur.
Compounds were drawn at random from those tested, without regard to their results.
Two or more numbers in one place are separate tests of the same structure; such repeats can differ widely.

Cc1nc(C)n(CC2CN(Cc3cccs3)Cc3nccn3C2)n1 (stereo not drawn) gave LiHisRS: -1.316%; CoaBC: -2.336%.
Cn1ncc(N2CCOC(CCNC(=O)CO)C2)cc1=O (stereo not drawn) gave LiHisRS: 7.447%; Leishmania in macrophages: 35.59%; CoaBC: 2.02%.
CN(C)c1ncc(C2Nc3cc(Cl)ccc3C3=NCCCN32)cn1 (stereo not drawn) gave LiHisRS: 17.24%; CoaBC: 6.551%.
[H][C@@]12CS(=O)(=O)C[C@]1([H])N(C(=O)c1ccc(Cl)cn1)CCN2CCC gave Leishmania in macrophages: -14.14%.
O=C(CSc1nc2c(cnn2CCO)c(=O)[nH]1)N1CCCCCC1 gave LiHisRS: 15.38%; Leishmania in macrophages: 15.86%; CoaBC: -1.066%.
COC(=O)c1oc(CNC(C)(C)c2ccc3c(c2)OCO3)cc1C gave LiHisRS: 4.762%; Leishmania in macrophages: -18.8%; CoaBC: -5.835%.
Cc1cc(F)cc(NC(=O)N(C)CC(C)(CO)CO)c1 gave LiHisRS: 19.54%; Leishmania in macrophages: 11.48%; CoaBC: 6.711%.
O=C(c1ccncc1F)N1CCCC(c2nccn2CC2CCC2)C1 (stereo not drawn) gave LiHisRS: 13.25%; Leishmania in macrophages: 17.67%; CoaBC: -0.8861%.
Cc1cccc(NC(=O)[C@@H]2CCCN2Cc2nnc(C(C)C)n2C)n1 gave LiHisRS: 9.821%; Leishmania in macrophages: 3.312%; CoaBC: 6.198%.
O=C(c1cncc(Br)c1)N1CCCc2c(F)cc(F)cc21 gave LiHisRS: 6.452%; Leishmania in macrophages: -0.4532%; CoaBC: -1.229%.
CN1CCC2(CC1)OC(C(=O)NCc1cccnc1)Cn1ccnc12 (stereo not drawn) gave LiHisRS: 14%; Leishmania in macrophages: -22.58%; CoaBC: 4.25%.
Cc1noc([C@]23COC[C@H]2CN(C(=O)CN(C)C)C3)n1 gave LiHisRS: 8.108%; CoaBC: 1.98%.
COCc1nnc(-c2cccc(C(=O)N(C)CC(C)(C)C)c2)o1 gave LiHisRS: 7.143%; Leishmania in macrophages: 10.71%; CoaBC: 1.474%.
COCC1CN(Cc2ccc(OC)cc2)Cc2nn(C)cc21.O=C(O)C(F)(F)F (stereo not drawn) gave Leishmania in macrophages: -2.069%.
CCc1ccc(C(=O)NCCCC2(C3OCCO3)CCOCC2)cc1 gave LiHisRS: 20.69%; Leishmania in macrophages: -32.81%; CoaBC: 7.923%.
Cl.Cl.Cl.OC(CN1CCN(Cc2cccnc2)CC1)c1cccs1 (stereo not drawn) gave Leishmania in macrophages: -2.065% & 9.351%.
COCCN1CCC2(COCc3cnc(-c4ccccc4)nc32)C1.O=C(O)C(F)(F)F (stereo not drawn) gave Leishmania in macrophages: 19.67%.
O=C([C@H]1COC[C@H]2CN(C3CCCCC3)C[C@H]21)N1CCOCC1 gave LiHisRS: 18%; CoaBC: -0.7389%.
CC(Nc1cccc2c1OCCO2)C(=O)Nc1cccc(C#N)c1 (stereo not drawn) gave LiHisRS: 20.35%; Leishmania in macrophages: -2.588%; CoaBC: 4.673%.
COc1ncccc1C(=O)N1CCN(C(=O)Cc2ccccn2)CC1 gave LiHisRS: 18.92%; Leishmania in macrophages: 3.365%; CoaBC: 2.35%.

The first 2 entries again:

Cc1nc(C)n(CC2CN(Cc3cccs3)Cc3nccn3C2)n1 (stereo not drawn) read LiHisRS: -1.316%; CoaBC: -2.336%.
Cn1ncc(N2CCOC(CCNC(=O)CO)C2)cc1=O (stereo not drawn) read LiHisRS: 7.447%; Leishmania in macrophages: 35.59%; CoaBC: 2.02%.